# Results reported in US20120252691.
# By UniProt entry, the sequences of proteins in these tests, tags left out.
# UniProt P11940, whole entry: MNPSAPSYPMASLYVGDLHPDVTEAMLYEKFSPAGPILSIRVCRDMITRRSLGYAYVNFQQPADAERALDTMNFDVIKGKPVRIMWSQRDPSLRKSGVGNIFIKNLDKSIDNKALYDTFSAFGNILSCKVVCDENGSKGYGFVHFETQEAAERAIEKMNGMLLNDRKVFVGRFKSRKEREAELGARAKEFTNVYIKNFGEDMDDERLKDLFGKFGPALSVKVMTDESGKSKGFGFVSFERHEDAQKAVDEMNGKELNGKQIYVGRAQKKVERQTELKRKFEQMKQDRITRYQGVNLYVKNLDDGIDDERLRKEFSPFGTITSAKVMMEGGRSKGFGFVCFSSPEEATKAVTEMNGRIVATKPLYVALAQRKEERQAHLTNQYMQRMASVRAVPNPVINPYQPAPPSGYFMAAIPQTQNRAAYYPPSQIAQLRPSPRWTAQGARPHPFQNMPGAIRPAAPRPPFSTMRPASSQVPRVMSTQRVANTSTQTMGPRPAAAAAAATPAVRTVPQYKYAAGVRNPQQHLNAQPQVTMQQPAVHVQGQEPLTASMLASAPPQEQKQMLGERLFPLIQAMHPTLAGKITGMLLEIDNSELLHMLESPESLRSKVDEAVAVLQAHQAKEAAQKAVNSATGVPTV
# For at least one entry, the source does not settle the construct or the ends of the probe. Results from cells or extracts need not show a direct contact.
# Target: PABPC1 (Poly(A) binding protein) (Homo sapiens) (UniProt P11940)
# Experiment: pull-down
# Settings: 10 mM Tris pH 7.5, 2.5 mM MgCl2, 10 mM KCl, 15% glycerol, 0.5% Tween-20, tRNA, 4 C; protein in an extract; protein details: endogenous, HEK 293 cell lysate; label: 3'-desthiobiotin-PEG4-alkane-cytidine
sequence,measurement,value
"AAAAAAAAAAAAAAAAAAAAAAAAA [Poly(A)25 RNA, desthiobiotin]",binding result,binds
